# Measured values: the supplement of paper PMC3334620
# Over roughly 33,000 sequences, “E-score (-0.5 to 0.5)” has its median near -8e-05; the highest 2% begin near 0.23. The list shows a part of the results.
# Biological target: T1, Nrg2 (UniProt P38082)
# T1 sequence: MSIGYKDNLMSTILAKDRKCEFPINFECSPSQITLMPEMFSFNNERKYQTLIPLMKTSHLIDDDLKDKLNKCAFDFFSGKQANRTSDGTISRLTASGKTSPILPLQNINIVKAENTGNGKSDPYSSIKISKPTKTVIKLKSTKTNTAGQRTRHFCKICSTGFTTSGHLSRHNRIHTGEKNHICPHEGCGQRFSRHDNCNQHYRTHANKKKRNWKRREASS
# Assay: PBM E-score (8-mer binding enrichment) (E-score (-0.5 to 0.5)); higher = stronger / more preferred TF binding
# Conditions: protein concentration: 100 nM; construct: GST-full length
# How it was run: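 Full-length yeast transcription factors or their DNA-binding domains, GST-tagged and expressed with PURExpress, were applied at about 100-200 nM to universal all-10-mer Agilent arrays. These arrays had been made double-stranded by primer extension on fresh or once-stripped slides. Detection used fluorescent anti-GST, normalisation used masliner, and E-scores for ungapped eight-base words pooled with reverse complements came from the Universal PBM Analysis Suite.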
row,Sequence,PBM E-score
1,AATACTGG,0.137
2,AGTACCTG,-0.0106
3,CCATTCTA,-0.087
4,ACTTCGTG,0.123
5,AGCTACAT,0.0247
6,ACGCGGCT,-0.152
7,TATCGTCA,-0.0105
8,CGAAAATC,0.163
9,CGAGATCA,0.22
10,CATTGCCA,-0.0171
11,CCACTCCA,-0.0999
12,CCGCGTGA,0.0878
13,CTTCGGGA,-0.0162
14,AGCCGACG,-0.096
15,TCAAGCAA,-0.119
16,AAGCGATT,-0.0219
17,GAATGGTC,-0.0983
18,ACAATGGT,-0.136
19,CCATAGTC,-0.0356
20,ACCTGTAC,-0.153
21,ATTCCAGG,0.0983
22,AACCCCAA,0.147

row,Sequence,PBM E-score
1,GATAAGTA,-0.0181
2,CCCGTCCA,-0.205
3,AGACCTCG,-0.0314
4,CCCGCATC,-0.122
5,GATCCGCA,-0.0105
6,CCTGACAA,0.18
7,CGAACGAC,0.107
8,CCAGGGTC,0.392
9,AGGCTGTC,-0.0238
10,TACGGCAA,0.215
11,ATGGCTAC,-0.0815
12,CAAGCGTC,0.0678
13,AGGCGGGA,-0.145
14,CATGCGGG,0.0834
15,GAGACATC,-0.0167
16,GACTACTA,0.0184
17,CTATAAGC,-0.0947
18,AAGAAAAT,0.0731
19,CGCAATCA,0.122
20,CAGGTACG,-0.192
21,GCTGCGTA,-0.0165
22,CAGGTGTA,-0.0459

row,Sequence,PBM E-score
1,GCGCGGAA,0.116
2,GAGACGCA,-0.0416
3,GTCCAATA,0.0483
4,GAAGGGCC,0.0555
5,CAGTGAAC,0.248
6,ACTTTCAA,0.137
7,GTAACCAA,0.0617
8,GATAAGAC,-0.0464
9,GACGTAAA,0.0194
10,ACACCGGA,-0.0337
11,GCCTGCGC,-0.0715
12,ACGCAGTA,-0.088
13,CTCTGCTA,-0.199
14,CCGTGAGA,-0.188
15,GGATGTCA,0.178
16,ATGCTCAA,-0.0666
17,ATCACTGG,0.0147
18,CACGTTTC,-0.125
19,ATCTTGCG,-0.0421
20,GGACACAA,0.224
21,CAGTCGCG,0.0776
22,ATAGCGGG,-0.0613

# A different layout for some results above.
row	Sequence	PBM E-score
1	AATACTGG	0.137
2	AGTACCTG	-0.0106
3	CCATTCTA	-0.087
4	ACTTCGTG	0.123
7	TATCGTCA	-0.0105
11	CCACTCCA	-0.0999
13	CTTCGGGA	-0.0162
14	AGCCGACG	-0.096
17	GAATGGTC	-0.0983
18	ACAATGGT	-0.136
19	CCATAGTC	-0.0356
20	ACCTGTAC	-0.153
22	AACCCCAA	0.147
2	CCCGTCCA	-0.205
3	AGACCTCG	-0.0314
5	GATCCGCA	-0.0105
6	CCTGACAA	0.18
7	CGAACGAC	0.107
8	CCAGGGTC	0.392
10	TACGGCAA	0.215
11	ATGGCTAC	-0.0815
12	CAAGCGTC	0.0678
14	CATGCGGG	0.0834
15	GAGACATC	-0.0167
16	GACTACTA	0.0184
19	CGCAATCA	0.122
20	CAGGTACG	-0.192
21	GCTGCGTA	-0.0165
1	GCGCGGAA	0.116
4	GAAGGGCC	0.0555
7	GTAACCAA	0.0617
10	ACACCGGA	-0.0337
13	CTCTGCTA	-0.199
22	ATAGCGGG	-0.0613

# Next part.

row,Sequence,PBM E-score
1,CCTACCAC,-0.157
2,CATCATAG,0.0749
3,ATGGGAAC,0.00554
4,ATTCCGAA,0.0901
5,CCCTATCG,0.0966
6,ACTTAGTC,-0.0921
7,CACGGAAC,0.141
8,GCATCTAA,0.0997
9,CGTATAGA,-0.0185
10,AGAAAGGC,-0.0703
11,TCTAGCAA,0.139
12,CGTCCTTC,-0.0462
13,ACTGTAAG,0.0693
14,ACTTAAAT,-0.0858
15,CGCCCACC,-0.0493
16,TCGTAGCA,0.109
17,GTGTTAAC,-0.0395
18,TATAGTGA,-0.122
19,GGAGAGAC,-0.179
20,ATAAAGAT,0.0728
21,GCCCTACA,0.021
22,ACTTAGAC,0.0437

row,Sequence,PBM E-score
1,AGCTTGTA,-0.00311
2,CTATGCGC,0.2
3,AGCTCCTA,-0.176
4,TCTGATCA,-0.00902
5,GAGGGCTA,-0.252
6,GAGCATCA,-0.112
7,TCTCGCAA,-0.0499
8,GCTTTTCC,-0.0446
9,AGTAAGCA,-0.203
10,CAACCTTC,0.00135
11,ACTTTGAT,-0.0142
12,GAGTGTTA,0.00753
13,AAAGTACA,0.121
14,ACATCCAC,-0.0593
15,AGCCGTCC,0.00267
16,GGTGCTGA,-0.16
17,AATGGTAC,-0.0589
18,AAAAATAG,0.0397
19,ACGGTGCT,-0.23
20,CGGCAAGA,0.00707
21,CCGGGTCG,-0.0464
